Data taken from paper PMC4632068.
No constants are given. Whether binding was seen depends on the method and setting. Binding seen in cells or lysates may run through a third protein. Some entries that bind do so weakly or less than the wild type. Where a sequence is shown, tags or fusion partners need not be part of it.

Sequences of proteins named here, by UniProt entry; tags and fusion partners are left off.
UniProt P22147: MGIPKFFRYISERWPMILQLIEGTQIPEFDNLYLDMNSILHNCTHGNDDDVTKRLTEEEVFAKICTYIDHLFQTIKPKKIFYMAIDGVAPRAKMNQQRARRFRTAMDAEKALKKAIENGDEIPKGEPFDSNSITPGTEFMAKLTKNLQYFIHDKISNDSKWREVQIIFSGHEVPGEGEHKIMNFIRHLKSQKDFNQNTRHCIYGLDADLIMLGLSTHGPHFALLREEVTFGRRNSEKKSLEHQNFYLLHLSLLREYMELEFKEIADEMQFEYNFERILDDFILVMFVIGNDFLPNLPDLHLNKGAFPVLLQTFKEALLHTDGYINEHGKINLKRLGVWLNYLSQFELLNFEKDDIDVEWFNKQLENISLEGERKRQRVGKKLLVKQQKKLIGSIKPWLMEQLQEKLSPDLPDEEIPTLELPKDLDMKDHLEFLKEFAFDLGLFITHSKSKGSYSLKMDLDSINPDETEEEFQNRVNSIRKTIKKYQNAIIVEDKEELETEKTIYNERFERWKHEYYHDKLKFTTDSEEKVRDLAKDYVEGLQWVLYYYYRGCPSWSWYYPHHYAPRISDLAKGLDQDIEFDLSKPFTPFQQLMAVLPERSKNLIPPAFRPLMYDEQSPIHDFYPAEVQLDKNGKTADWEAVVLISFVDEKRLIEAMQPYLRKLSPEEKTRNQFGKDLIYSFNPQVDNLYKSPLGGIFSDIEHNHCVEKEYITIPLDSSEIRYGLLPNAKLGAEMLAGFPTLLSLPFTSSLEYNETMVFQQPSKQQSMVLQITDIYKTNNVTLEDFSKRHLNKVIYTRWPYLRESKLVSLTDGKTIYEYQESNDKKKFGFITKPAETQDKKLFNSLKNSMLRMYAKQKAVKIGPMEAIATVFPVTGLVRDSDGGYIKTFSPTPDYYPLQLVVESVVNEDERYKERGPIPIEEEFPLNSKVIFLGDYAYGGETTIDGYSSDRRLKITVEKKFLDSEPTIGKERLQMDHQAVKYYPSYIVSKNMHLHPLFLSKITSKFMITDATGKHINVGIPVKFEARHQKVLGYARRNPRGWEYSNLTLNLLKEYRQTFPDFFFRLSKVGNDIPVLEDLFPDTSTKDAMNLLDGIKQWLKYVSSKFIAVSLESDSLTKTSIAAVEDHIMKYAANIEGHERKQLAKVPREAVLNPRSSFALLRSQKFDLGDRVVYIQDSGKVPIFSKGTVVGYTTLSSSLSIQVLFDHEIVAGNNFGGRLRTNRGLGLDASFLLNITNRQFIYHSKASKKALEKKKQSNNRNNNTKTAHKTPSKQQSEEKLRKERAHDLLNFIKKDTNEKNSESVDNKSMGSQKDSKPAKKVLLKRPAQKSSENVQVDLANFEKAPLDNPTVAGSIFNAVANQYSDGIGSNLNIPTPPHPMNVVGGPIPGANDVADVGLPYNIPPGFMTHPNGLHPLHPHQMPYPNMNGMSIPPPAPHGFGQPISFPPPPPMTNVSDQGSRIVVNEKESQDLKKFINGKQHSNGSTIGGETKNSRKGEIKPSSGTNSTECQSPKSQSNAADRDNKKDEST

T1: Dhh1−GFP (S. cerevisiae (endogenous in BY4741-derived yeast)) (UniProt P39517)
T1 sequence: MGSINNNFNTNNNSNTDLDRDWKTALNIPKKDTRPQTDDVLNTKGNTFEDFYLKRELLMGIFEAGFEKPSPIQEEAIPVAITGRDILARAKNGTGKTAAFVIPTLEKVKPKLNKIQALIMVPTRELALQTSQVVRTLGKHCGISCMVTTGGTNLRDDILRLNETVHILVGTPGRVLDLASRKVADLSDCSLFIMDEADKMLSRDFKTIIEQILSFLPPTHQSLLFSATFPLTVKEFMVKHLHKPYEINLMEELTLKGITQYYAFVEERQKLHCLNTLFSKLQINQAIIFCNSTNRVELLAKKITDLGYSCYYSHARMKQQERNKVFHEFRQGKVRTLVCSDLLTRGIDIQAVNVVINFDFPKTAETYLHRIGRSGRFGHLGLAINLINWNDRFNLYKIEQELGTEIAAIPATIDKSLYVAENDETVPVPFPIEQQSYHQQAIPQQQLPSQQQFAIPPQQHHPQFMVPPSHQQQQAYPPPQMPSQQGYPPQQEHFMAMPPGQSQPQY

T2: Dhh1−GFP (S. cerevisiae (endogenous in BY4741-derived yeast)), P39517
T2 chain: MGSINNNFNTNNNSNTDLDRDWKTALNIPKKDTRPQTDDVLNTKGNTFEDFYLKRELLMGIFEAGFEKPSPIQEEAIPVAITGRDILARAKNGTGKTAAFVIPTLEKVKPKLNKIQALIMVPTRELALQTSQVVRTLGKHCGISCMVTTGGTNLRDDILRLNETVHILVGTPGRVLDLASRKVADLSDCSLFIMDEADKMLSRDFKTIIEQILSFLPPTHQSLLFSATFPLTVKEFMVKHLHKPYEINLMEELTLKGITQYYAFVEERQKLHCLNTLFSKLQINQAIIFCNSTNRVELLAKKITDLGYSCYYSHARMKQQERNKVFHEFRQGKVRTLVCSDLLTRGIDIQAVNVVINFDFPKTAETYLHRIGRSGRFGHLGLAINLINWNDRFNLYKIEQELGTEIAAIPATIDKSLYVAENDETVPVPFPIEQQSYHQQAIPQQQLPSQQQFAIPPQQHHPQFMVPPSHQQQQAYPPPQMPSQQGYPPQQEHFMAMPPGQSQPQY


Experiments:
[1] = biological target: T1, Dhh1−GFP (S. cerevisiae (endogenous in BY4741-derived yeast)); experiment: co-IP; Dhh1−GFP immunoisolated on anti-GFP Protein-G beads from yeast lysate (+glucose and −glucose); eluate on silver-stained SDS gel, bands assigned by apparent molecular weight and MS from other purifications; BY4741 as negative control
[2] = biological target: T2, Dhh1−GFP (S. cerevisiae (endogenous in …)); experiment: as above; details: remark: other sources report otherwise

| Molecule | binding [1] | binding [2] |
| --- | --- | --- |
| Xrn1 (from UniProt P22147 1-1528) | binds |  |
| Pat1 (protein, UniProt P25644 1-796) MSFFGLENSGNARDGPLDFEESYKGYGEHELEENDYLNDETFGDNVQVGTDFDFGNPHSSGSSGNAIGGNGVGATARSYVAATAEGISGPRTDGTAAAGPLDLKPMESLWSTAPPPAMAPSPQSTMAPAPAPQQMAPLQPILSMQDLERQQRQMQQQFMNFHAMGHPQGLPQGPPQQQFPMQPASGQPGPSQFAPPPPPPGVNVNMNQMPMGPVQVPVQASPSPIGMSNTPSPGPVVGATKMPLQSGRRSKRDLSPEEQRRLQIRHAKVEKILKYSGLMTPRDKDFITRYQLSQIVTEDPYNEDFYFQVYKIIQRGGITSESNKGLIARAYLEHSGHRLGGRYKRTDIALQRMQSQVEKAVTVAKERPSKLKDQQAAAGNSSQDNKQANTVLGKISSTLNSKNPRRQLQIPRQQPSDPDALKDVTDSLTNVDLASSGSSSTGSSAAAVASKQRRRSSYAFNNGNGATNLNKSGGKKFILELIETVYEEILDLEANLRNGQQTDSTAMWEALHIDDSSYDVNPFISMLSFDKGIKIMPRIFNFLDKQQKLKILQKIFNELSHLQIIILSSYKTTPKPTLTQLKKVDLFQMIILKIIVSFLSNNSNFIEIMGLLLQLIRNNNVSFLTTSKIGLNLITILISRAALIKQDSSRSNILSSPEISTWNEIYDKLFTSLESKIQLIFPPREYNDHIMRLQNDKFMDEAYIWQFLASLALSGKLNHQRIIIDEVRDEIFATINEAETLQKKEKELSVLPQRSQELDTELKSIIYNKEKLYQDLNLFLNVMGLVYRDGEISELK | binds |  |
| Edc3 (protein, UniProt P39998 1-551) MSQFVGFGVQVELKDGKLIQGKIAKATSKGLTLNDVQFGDGGKSQAFKVRASRLKDLKVLTVASQSGKRKQQRQQQQQNDYNQNRGEHIDWQDDDVSKIKQQEDFDFQRNLGMFNKKDVFAQLKQNDDILPENRLQGHNRKQTQLQQNNYQNDELVIPDAKKDSWNKISSRNEQSTHQSQPQQDAQDDLVLEDDEHEYDVDDIDDPKYLPITQSLNITHLIHSATNSPSINDKTKGTVINDKDQVLAKLGQMIISQSRSNSTSLPAANKQTTIRSKNTKQNIPMATPVQLLEMESITSEFFSINSAGLLENFAVNASFFLKQKLGGRARLRLQNSNPEPLVVILASDSNRSGAKALALGRHLCQTGHIRVITLFTCSQNELQDSMVKKQTDIYKKCGGKIVNSVSSLESAMETLNSPVEIVIDAMQGYDCTLSDLAGTSEVIESRIKSMISWCNKQRGSTKVWSLDIPNGFDAGSGMPDIFFSDRIEATGIICSGWPLIAINNLIANLPSLEDAVLIDIGIPQGAYSQRTSLRKFQNCDLFVTDGSLLLDL | binds |  |
| Dcp2, P53550 1-970 (protein) MSLPLRHALENVTSVDRILEDLLVRFIINCPNEDLSSVERELFHFEEASWFYTDFIKLMNPTLPSLKIKSFAQLIIKLCPLVWKWDIRVDEALQQFSKYKKSIPVRGAAIFNENLSKILLVQGTESDSWSFPRGKISKDENDIDCCIREVKEEIGFDLTDYIDDNQFIERNIQGKNYKIFLISGVSEVFNFKPQVRNEIDKIEWFDFKKISKTMYKSNIKYYLINSMMRPLSMWLRHQRQIKNEDQLKSYAEEQLKLLLGITKEEQIDPGRELLNMLHTAVQANSNNNAVSNGQVPSSQELQHLKEQSGEHNQQKDQQSSFSSQQQPSIFPSLSEPFANNKNVIPPTMPMANVFMSNPQLFATMNGQPFAPFPFMLPLTNNSNSANPIPTPVPPNFNAPPNPMAFGVPNMHNLSGPAVSQPFSLPPAPLPRDSGYSSSSPGQLLDILNSKKPDSNVQSSKKPKLKILQRGTDLNSIKQNNNDETAHSNSQALLDLLKKPTSSQKIHASKPDTSFLPNDSVSGIQDAEYEDFESSSDEEVETARDERNSLNVDIGVNVMPSEKDSRRSQKEKPRNDASKTNLNASAESNSVEWGPGKSSPSTQSKQNSSVGMQNKYRQEIHIGDSDAYEVFESSSDEEDGKKLEELEQTQDNSKLISQDILKENNFQDGEVPHRDMPTESNKSINETVGLSSTTNTVKKVPKVKILKRGETFASLANDKKAFDSSSNVSSSKDLLQMLRNPISSTVSSNQQSPKSQHLSGDEEIMMMLKRNSVSKPQNSEENASTSSINDANASELLGMLKQKEKDITAPKQPYNVDSYSQKNSAKGLLNILKKNDSTGYPRTEGGPSSEMSTSMKRNDATNNQELDKNSTELLNYLKPKPLNDGYENISNKDSSHELLNILHGNKNSSAFNNNVYATDGYSLASDNNENSSNKLLNMLQNRSSAINEPNFDVRSNGTSGSNELLSILHRK |  | binds |
